{
  "source": "patent US5409950A",
  "about": "“Cyclic ketal derivatives” (Glaxo Group Limited, priority 1991, dated 1995)",
  "target": "T1, squalene synthase (Rattus norvegicus, UniProt Q02769)",
  "T1 construct": "incubating rat liver homogenate with various concentrations of the test compound; from tissue; host or cells: rat liver homogenate",
  "T1 sequence (Q02769 1-416)": "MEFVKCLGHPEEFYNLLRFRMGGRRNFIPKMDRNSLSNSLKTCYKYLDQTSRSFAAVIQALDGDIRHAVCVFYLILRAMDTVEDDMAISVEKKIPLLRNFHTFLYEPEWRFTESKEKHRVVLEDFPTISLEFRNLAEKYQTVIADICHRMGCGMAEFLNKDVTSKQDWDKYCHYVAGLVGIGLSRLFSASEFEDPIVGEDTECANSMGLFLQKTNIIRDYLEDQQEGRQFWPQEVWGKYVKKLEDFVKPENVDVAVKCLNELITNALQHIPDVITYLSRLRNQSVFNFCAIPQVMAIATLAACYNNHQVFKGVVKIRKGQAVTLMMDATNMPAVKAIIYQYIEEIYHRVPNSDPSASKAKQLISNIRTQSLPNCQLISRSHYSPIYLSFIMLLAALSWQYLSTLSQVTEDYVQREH",
  "experiment": "Inhibition of squalene synthase in rat liver homogenate",
  "assay_type": "biochemical",
  "method": "Acta, Volume 877, 50-60 (1986) and modified to include measurement of cholesterol by high performance liquid chromatography (h.p.l.c.).\n[^14 C] Squalene was separated from unreacted substrate on thin layer chromatography plates and determined by liquid scintillation counting. Inhibition of squalene synthase was quantified by incubating rat liver homogenate with various concentrations of the test compound in the presence of [2-^14 C] farnesylpyrophosphate. The concentration of compound giving 50% inhibition of [^14 C] squalene production in a 30 minute assay was taken as the IC50 value.",
  "data": [
    {"smiles": "C=C(CC[C@]12O[C@H](C(=O)O)[C@@](O)(C(=O)O)[C@](C(=O)O)(O1)[C@H](O)[C@H]2O)[C@@H](OC(C)=O)[C@H](C)Cc1ccccc1", "note": "(relative stereo) [Compound C, [1S-]1α(4R*,5S*),3α,4β,5α,6α,7β]]1-(4-acetyloxy-5-methyl-3-methylene-6-phenylhexyl)-4,6,7-trihydroxy-2,8-dioxabicyclo[3.2.1]octane-3,4,5-tricarboxylic acid]", "values": [
      {"measurement": "IC50", "value": "< 100", "unit": "nM"}
    ]}
  ]
}
